# From PubChem BioAssay AID1347075 (National Center for Advancing Translational Sciences (NCATS), 2019)
# Where “and” joins values, the source holds several entries; their conditions need not be identical. Equal values may be shown once. The campaign covered roughly 400,000 compounds. About 5,500 (1.4%) were called active. This list was built around the results that the source calls inconclusive (neither active nor inactive); the mix of calls is not that of the screen. Calls come from the whole dose curve; as a rule, active = well fitted cell-killing curve with a large enough effect; inconclusive = small, poorly fitted or top-dose-only effect, or effect the other way; inactive = flat fitted curve, though single readings scatter. Potencies beside an inconclusive call are fits to weak or partial responses and may not hold up.
# Assay: qHTS assay for MDR1-selective chemotherapeutics: Primary screen using the parental adenocarcinoma cell KB-3-1; note: nearly all actives have a fitted effect of over 60% in size
# Details: KB-3-1 viability, CellTiter-Glo ATP luminescence, 72 h; activity change, negative = cytotoxic: at 46.1 µM (top of the series)
# Outline: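 KB-3-1 parental drug-naive adenocarcinoma cells in DMEM/10% FBS, incubated 72 h at 37 C with pin-transferred compounds across a concentration series. Viability by CellTiter-Glo luminescence; concentration-response curves fitted after normalization.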
# % is set by controls: 0 for no effect and ±100 for the full control effect; potency is the fitted concentration of half-maximal effect.
SMILES,Potency,"activity change, negative = cytotoxic"
CN(C)C1(CNC(=O)C2CCC(=O)N(Cc3ccc(Cl)cc3)C2)CCCCC1 (stereo not given),inactive,–
COc1ccc(C(=O)/C=C\c2ccc(NC(=O)c3cccs3)cc2)cc1,"inconclusive: 29.1 µM [cytotoxic, single point]",–
CSc1nc(Cl)c(Cc2ccc(OC(C)C)cc2)c(N2CCOCC2)n1,active: 9.2 µM,–
CCc1ccc(N2C(=O)C(Cl)=C(Nc3ccc(C(=O)N4CCCC4)cc3)C2=O)cc1,inactive,–
COC(=O)CC1C(=O)NC2CCCCC2N1C(=O)CCl (stereo not given),"inconclusive: 29.1 µM [cytotoxic, single point]",–
Clc1ccc(Cn2cnc3ccccc32)cc1,"inconclusive: 29.1 µM [cytotoxic, single point]",–
CC(CN1CCCCC1)OC(=O)C1c2ccccc2Oc2ccccc21 (stereo not given),inactive,–
COc1ccc(C(=O)C(C)Oc2cccc(NC(=O)c3cccc([N+](=O)[O-])c3)c2)cc1 (stereo not given),inactive,–
CCS(=O)(=O)c1ccc(O)c(NC(=O)COc2ccc(OC)cc2)c1,inactive,–
Cc1ccc2nc(Cl)c(/C=N/Nc3ccc(C(=O)O)cc3)cc2c1,inactive,–
CC(Cc1ccccc1)C(=O)N(C)Cc1ccccc1 (stereo not given),"inconclusive: 23.1 µM [cytotoxic, partial curve, poor fit]",–
CCOc1ccccc1NS(=O)(=O)c1cc(-c2cnc(C3CC3)o2)ccc1C,–,inconclusive: -20.9%
Cc1ccc(-n2nc3c(=O)n(C(C)C(=O)NCc4ccccc4C)nc(C)c3c2C)cc1 (stereo not given),active: 14.6 µM,–
CC1(C)Cc2c(c(-c3ccco3)nc3sc4c(NCC5CCCO5)ncnc4c23)CO1 (stereo not given),"inconclusive: 18.4 µM [rising, partial curve]",–
CC(C)CC1=C/C(=C/c2ccc(-c3ccccc3)o2)C(=O)O1,inactive,–
CC(=O)CC(C)(C)S(=O)(=O)c1ccc(Oc2ccc(S(=O)(=O)C(C)(C)CC(C)=O)cc2)cc1,inactive,–
CCOC(=O)c1ccc2nc(NC(=O)c3cccs3)sc2c1,inactive,–
Cc1cc(C)n2c(Nc3ccc4c(c3)OCCO4)c(C3CC3)nc2n1,"inconclusive: 16.4 µM [cytotoxic, single point]",–
N#Cc1cccc(NC(=O)COc2ccc(-n3ccnc3)cc2)c1,"inconclusive: 25.9 µM [cytotoxic, partial curve, poor fit]",–
CCCOc1ccc2[nH]c(C(=O)N/N=C/c3cc(OC)c(OC)c(OC)c3)cc2c1,"inconclusive: 18.4 µM [cytotoxic, partial curve, poor fit]",–
COc1ccc(S(=O)(=O)NC(=O)C2(C)CCN2C(=O)C(C)(C)c2ccccc2)cc1 (stereo not given),inactive,–
COc1ccc(-c2noc(CSc3nc4ccccc4[nH]3)n2)cc1,"inconclusive: 32.6 µM [cytotoxic, single point]",–
O=C(c1[nH]c(C(F)(F)F)nc1-c1ccccc1)N1CCN(c2ncccn2)CC1,"inconclusive: 18.4 µM [cytotoxic, single point]",–

SMILES,Potency,"activity change, negative = cytotoxic"
O=C(NNc1ccccc1)NC(Cc1ccccc1)C(=O)O (stereo not given),inactive,–
Oc1ccccc1C1SC(c2ccccc2O)SC(c2ccccc2O)S1 (stereo not given),"inconclusive: 25.9 µM [cytotoxic, single point]",–
CCN(c1ccccc1)S(=O)(=O)c1ccc(C(=O)NNC(=O)c2ccccc2F)cc1,"inconclusive: 29.1 µM [cytotoxic, single point]",–
CNC(=O)c1c(NC(=O)Cc2coc3ccc(OC)cc23)sc2c1CCCC2,"inconclusive: 29.1 µM [cytotoxic, single point]",–
CCOC(=O)C(=Cc1cc(=O)c(OC)co1)C(=O)OCC,active: 4.61 µM,–
Cc1cccnc1C(NC(=O)C1CCN(Cc2ccc(Oc3ccccc3)cc2)CC1)c1ccc(F)cc1 (stereo not given),"inconclusive: 29.1 µM [cytotoxic, single point]",–
O=C(Nc1ccc2c(c1)nc1n2CCN(Cc2ccccc2)C1)NC1CCCCC1,inactive,–
COc1ccc(CCNC(=O)c2ccc(Cn3c(=O)[nH]c4cc(OC)c(OC)cc4c3=O)cc2)cc1OC,inactive,–
COc1ccc(C(=O)Cn2c(C(=O)/C=C/c3ccccc3)nc3ccccc32)cc1,"inconclusive: 16.4 µM [cytotoxic, single point]",–
COc1ccc(NC(=O)C2CCCN2C(=O)OCc2ccccc2)cc1 (stereo not given),inactive,–
CSc1ccc(/C=N/NC(=O)c2cccc(O)c2)cc1,"inconclusive: 16.4 µM [cytotoxic, single point]",–
CCOC(=O)C1=C(C)NC(C)=C(C(=O)OCC)C1c1ccc([N+](=O)[O-])s1,"inconclusive: 29.1 µM [cytotoxic, single point] and inconclusive: 16.4 µM [cytotoxic, single point]",–
CCc1ccccc1N(CC)C(=O)C1CCN(c2ncnc3c2nc2n3CCCCC2)CC1,"inconclusive: 29.1 µM [cytotoxic, single point]",–
COc1cc(OC)cc(C(=O)NCc2ccc(-n3cccc3)cc2)c1,"inconclusive: 29.1 µM [cytotoxic, single point]",–
Cc1ccc(-c2nc(N/N=C/c3cccnc3)c3ccccc3n2)cc1,"inconclusive: 16.4 µM [cytotoxic, single point]",–
CN(CC(CC(=O)Nc1nncs1)c1ccccc1)S(=O)(=O)c1ccccc1 (stereo not given),"inconclusive: 20.6 µM [cytotoxic, partial curve, poor fit]",–
COc1cc2c(NC3CCN(C)CC3)nc(N3CCCN(C)CC3)nc2cc1OCCCCN(C)C,active: 16.4 µM,–
O=C(Nc1sc2c(c1C(=O)O)CCCCC2)c1cccs1,"inconclusive: 20.6 µM [cytotoxic, single point]",–
COc1ccc(N(CC(=O)NCCSc2ccccc2)S(C)(=O)=O)cc1,"inconclusive: 0.0326 µM [cytotoxic, full curve]",–
NNc1nc2sc3c(c2c(=O)n1-c1ccccc1)CCCC3,"inconclusive: 29.1 µM [cytotoxic, single point]",–
O=C(c1cc2cc(F)ccc2[nH]1)N1CCN(c2cccc(Cl)c2)CC1,inactive,–
O=C(N/N=C/c1ccc([N+](=O)[O-])o1)C(O)c1ccccc1 (stereo not given),"inconclusive: 20.6 µM [cytotoxic, single point]",–

# A different layout for part of the listing above:
SMILES	Potency	activity change, negative = cytotoxic
Oc1ccccc1C1SC(c2ccccc2O)SC(c2ccccc2O)S1 (stereo not given)	inconclusive: 25.9 µM [cytotoxic, single point]	–
CCN(c1ccccc1)S(=O)(=O)c1ccc(C(=O)NNC(=O)c2ccccc2F)cc1	inconclusive: 29.1 µM [cytotoxic, single point]	–
CNC(=O)c1c(NC(=O)Cc2coc3ccc(OC)cc23)sc2c1CCCC2	inconclusive: 29.1 µM [cytotoxic, single point]	–
